Laboratory results published in paper PMC9579124, “IKKβ binds NLRP3 providing a shortcut to inflammasome activation for rapid immune responses” (Signal Transduction and Targeted Therapy, 2022).
No constants are given. Whether binding was seen depends on the method and setting. In cells and extracts the contact can be indirect. A result given as binding can be weak or reduced; the word gives no strength. Sequences can lack the tags named with a protein.

Experiments:
[1] = target: Flag-tagged mutant NLRP3 lacking the amino-terminal pyrin domain; experiment: co-IP; HEK293 cells transiently cotransfected with HA-IKKβ and Flag-tagged proteins; lysate subjected to immunoprecipitation, immunoblot
[2] = target: Flag-tagged LRR domain of NLRP3, singly expressed; experiment: as above

B1: IKKβ used for microscale thermophoresis (enzyme, UniProt O14920 1-756, looked up)
chain: MSWSPSLTTQTCGAWEMKERLGTGGFGNVIRWHNQETGEQIAIKQCRQELSPRNRERWCLEIQIMRRLTHPNVVAARDVPEGMQNLAPNDLPLLAMEYCQGGDLRKYLNQFENCCGLREGAILTLLSDIASALRYLHENRIIHRDLKPENIVLQQGEQRLIHKIIDLGYAKELDQGSLCTSFVGTLQYLAPELLEQQKYTVTVDYWSFGTLAFECITGFRPFLPNWQPVQWHSKVRQKSEVDIVVSEDLNGTVKFSSSLPYPNNLNSVLAERLEKWLQLMLMWHPRQRGTDPTYGPNGCFKALDDILNLKLVHILNMVTGTIHTYPVTEDESLQSLKARIQQDTGIPEEDQELLQEAGLALIPDKPATQCISDGKLNEGHTLDMDLVFLFDNSKITYETQISPRPQPESVSCILQEPKRNLAFFQLRKVWGQVWHSIQTLKEDCNRLQQGQRAAMMNLLRNNSCLSKMKNSMASMSQQLKAKLDFFKTSIQIDLEKYSEQTEFGITSDKLLLAWREMEQAVELCGRENEVKLLVERMMALQTDIVDLQRSPMGRKQGGTLDDLEEQARELYRRLREKPRDQRTEGDSQEMVRLLLQAIQSFEKKVRVIYTQLSKTVVCKQKALELLPKVEEVVSLMNEDEKTVVRLQEKRQKELWNLLKIACSKVRGPVSGSPDSMNASRLSQPGQLMSQPSTASNSLPEPAKKSEELVAEAHNLCTLLENAIQDTVREQDQSFTALDWSWLQTEEEEHSCLEQAS
notes: IKKβ titrated in MST
[1]
  binding: binds
[2]
  binding: binds
